Test results taken from patent US20230364262A1 (SYNAFFIX B.V., priority 2020, published 2023).

Test: peptide synthesis
Conditions: conjugation step

Row | Substance | conjugation yield
1 | BCN-PEG12-LPETGG | 63%
2 | Arylazide-PEG11-LPETGG | 59%
